# Measurements published in patent US20260258064A1 (SIRONAX LTD., priority 2023, published 2026).
# Protein sequences, listed by entry. Tags and fused reporters are not part of them. Residues count along the entry.
# UniProt Q6SZW1, 50-724 limits assumed: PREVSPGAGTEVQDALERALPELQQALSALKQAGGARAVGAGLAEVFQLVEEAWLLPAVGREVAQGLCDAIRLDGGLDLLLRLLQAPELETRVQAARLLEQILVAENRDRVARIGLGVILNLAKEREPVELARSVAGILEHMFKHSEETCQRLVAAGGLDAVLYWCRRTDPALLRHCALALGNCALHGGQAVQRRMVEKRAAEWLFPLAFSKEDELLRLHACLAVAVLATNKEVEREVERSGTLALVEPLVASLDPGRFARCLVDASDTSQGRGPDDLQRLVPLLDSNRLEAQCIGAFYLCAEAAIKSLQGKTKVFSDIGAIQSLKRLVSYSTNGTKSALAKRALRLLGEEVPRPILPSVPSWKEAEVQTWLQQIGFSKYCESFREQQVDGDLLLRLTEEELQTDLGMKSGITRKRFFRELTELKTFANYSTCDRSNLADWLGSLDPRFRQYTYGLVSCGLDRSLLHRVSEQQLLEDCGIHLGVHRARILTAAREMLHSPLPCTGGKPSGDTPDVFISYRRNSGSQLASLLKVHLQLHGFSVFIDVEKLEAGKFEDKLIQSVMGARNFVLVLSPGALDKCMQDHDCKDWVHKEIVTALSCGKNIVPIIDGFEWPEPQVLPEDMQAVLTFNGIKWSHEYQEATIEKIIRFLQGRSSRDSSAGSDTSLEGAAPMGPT
# Structures were worked out from names or drawings and are uncertain.
# Molecular target: SARM1 (50-724) (Homo sapiens, UniProt Q6SZW1)
# Assay: SARM1 (50-724) enzymatic assay (LC-MS/MS)
# Conditions: read-out: IC50 (SARM1 inhibitory activity), Purified SARM1 (50-724) 2 nM, NMN as activator, NAD+ as substrate, 1 h at room temperature
# Description: An enzymatic assay was performed in a 384-well plate using Dulbecco's phosphate-buffered saline (PBS) as the reaction buffer. Purified SARM1 (50-724) with a final concentration of 2 nM was pre-incubated with a test compound at […] final assay concentration for 15 min at room temperature. The reaction was initiated by adding a mixture of […] nicotinamide mononucleotide (NMN) as activator and […] NAD^+ as substrate. After 1 h of incubation at room temperature, the reaction was terminated with 10 times volume of 70% acetonitrile, and then centrifuged at 3800 rpm for 10 min. The samples were analyzed using LC-MS/MS after diluted to a proper concentration by 10 mM ammonium acetate (pH 9.75).
# In Table 2, activity is provided as follows: A: IC50≤100 nM; B: 100 nM<IC50≤500 nM; C: 500 nM<IC50≤1000 nM; D: IC50>1000 nM.
row,SMILES,IC50
1,CC(c1cc(F)c2[nH]c(-c3nncn3-c3cnccc3C(F)(F)F)nc2c1)c1ccccn1 (centres unmarked),< 100 nM
2,FC(F)(F)c1ccc2[nH]c(-c3nncn3-c3cc(-c4ncc[nH]4)ncc3Cl)nc2c1,< 100 nM
